Measurements taken from PubChem BioAssay AID493014 (National Center for Advancing Translational Sciences (NCATS), 2011).
The other results are listed elsewhere or left out. The main result of the screen is listed elsewhere. These columns were measured beside it and carry no call. The list favours compounds with an active or inconclusive main result. Potencies come from curve fits of mixed quality, noted in brackets.

Assay: qHTS Assay to Find Inhibitors of Chronic Active B-Cell Receptor Signaling
Conditions: ABC-DLBCL IkBa-CBG/CBR reporter, luminescence ratio (green luciferase fused to IkBa over red control in TMD8 lymphoma cells), 4 h
Method in brief: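 TMD8 ABC-DLBCL cells carrying doxycycline-inducible green luciferase fused to IkappaBalpha plus unfused red luciferase were exposed to compounds (up to 46 uM) for 4 hrs at 37C. Activity came from the overlap-corrected green/red luminescence ratio.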

[1] = measured here: CBR red luminescence, cell number
[2] = measured here: IkBa-CBG green luminescence

For `Cc1ccc(C2=CC(c3c(F)cccc3Cl)n3ncnc3N2)cc1C` (stereo not drawn), the AC50 [1] was 35.5 µM [falling, single point].
For `NNc1ccc(Cl)c(C(=O)O)c1`, the AC50 [1] was 22.4 µM [falling, partial curve, poor fit].
With `COc1ccc(/C(C)=C2\SC(=S)N(CCC(=O)O)C2=O)cc1` the AC50 [1] was 1.64 µM [falling, full curve, poor fit].
For `COC(=O)c1c(NC(=O)c2cccs2)sc2c1CCC(C)C2` (stereo not drawn), the AC50 [1] was 1.78 µM [rising, full curve, poor fit].
With `N#CC1c2ccccc2C=CN1C(=O)c1ccccc1` (stereo not drawn) the AC50 [1] was 3.98 µM [rising, full curve, poor fit].
For `CNC(=O)c1c[nH]c2ccc(S(=O)(=O)Nc3cccc(Cl)c3C)cc2c1=O`, the AC50 [1] was 20.6 µM [falling, partial curve, poor fit].
In the case of `NC(=O)c1nn(-c2ccccc2)nc1NC(=O)CN1CCOCC1`, the AC50 [1] is reported as 5.62 µM [falling, single point].
With `O=C(Nc1ccc(F)c(S(=O)(=O)N2CCOCC2)c1)C1CCCCC1` the AC50 [1] was 11.6 µM [rising, partial curve, poor fit].
For `O=C(NNC(=O)[C@@H]1CCCC[C@@H]1C(=O)O)Nc1ccccc1`, the AC50 [1] was 3.66 µM [rising, partial curve, poor fit].
For `O=C1Nc2ccc(Br)cc2/C1=C/c1ccc(C(=O)O)cc1`, the AC50 [1] was 12.6 µM [falling, partial curve, poor fit].
For `CC(Sc1ccccc1)C(=O)Nc1ccccc1C(=O)N1CCOCC1` (stereo not drawn), the AC50 [1] was 5.17 µM [rising, partial curve, poor fit].
In the case of `O=S(=O)(c1cccc(-c2csc(-c3cccnc3)n2)c1)N1CCOCC1`, the AC50 [1] is reported as 0.708 µM [rising, full curve].
With `O=C(Nc1nccs1)c1ccccc1[N+](=O)[O-]` the AC50 [1] was 7.31 µM [falling, partial curve, poor fit].
With `COC(=O)c1[nH]c2ccc(C)cc2c1NC(=O)CN1CCc2cc(OC)c(OC)cc2C1` the AC50 [1] was 17.8 µM [falling, single point].
In the case of `O=C(c1ccc(CS(=O)Cc2ccccc2Cl)o1)N1CCN(c2cccc(Cl)c2)CC1` (stereo not drawn), the AC50 [1] is reported as 25.1 µM [falling, single point].
With `CC1=C(C#N)C(c2cccnc2)C2=C(CCCC2=O)N1` (stereo not drawn) the AC50 [1] was 20.6 µM [rising, single point].
For `COc1ccc(-c2[nH]ncc2C=O)cc1OC`, the AC50 [1] was 12.6 µM [falling, partial curve, poor fit].
With `COc1cccc(N(C(=O)c2cccs2)c2nc3ccccc3s2)c1` the AC50 [1] was 14.6 µM [rising, single point].
For `O=C(O)C/C(=C\c1ccc2c(c1)OCO2)c1nc2ccccc2s1`, the AC50 [1] was 10 µM [falling, partial curve].
With `COc1ccc(NC(=O)CSc2ccc(-c3ccccn3)nn2)cc1OC` the AC50 [1] was 16.4 µM [falling, partial curve, poor fit].
In the case of `O=C(O)c1ccc(N2C(=O)c3[nH]nc(-c4ccccc4)c3C2c2ccccc2)cc1` (stereo not drawn), the AC50 [1] is reported as 17.8 µM [falling, partial curve, poor fit].
For `O=C(c1cc(-c2cccc(O)c2)on1)N1CCCCC1`, the AC50 [1] was 18.4 µM [falling, single point].
With `COc1cc(NC(=O)C(C)Oc2ccccc2)c(C(=O)O)cc1OC` (stereo not drawn) the AC50 [1] was 20.6 µM [falling, single point].
For `Oc1ccccc1CNc1ccc(Br)cn1`, the AC50 [1] was 1.12 µM [rising, full curve, poor fit].
In the case of `O=C(COCc1cc(-c2ccco2)on1)NC1CCCCC1`, the AC50 [1] is reported as 6.31 µM [rising, partial curve, poor fit].
In the case of `CCOC(=O)c1[nH]c2cc(OC)c(OC)cc2c1NC(=O)CN1CCN(C)CC1`, the AC50 [1] is reported as 11.6 µM [rising, partial curve, poor fit].
For `Cn1c(N2CCC(C(N)=O)CC2)nc2c1c(=O)n(Cc1ccc(Cl)cc1)c(=O)n2C`, the AC50 [1] was 2.59 µM [falling, full curve, poor fit].
For `NC(=O)C1CCN(C(=O)Cn2cccc2C(=O)c2ccccc2)CC1`, the AC50 [1] was 1.16 µM [rising, single point].
With `CC(C)(C)c1cc(CN2CCCC(O)C2)c(O)c(C(C)(C)C)c1` (stereo not drawn) the AC50 [1] was 29.1 µM [rising, single point].
With `COc1cc(-c2c(-c3cccc(C)c3)oc3ccccc23)cc(OC)c1OC` the AC50 [1] was 4.47 µM [falling, full curve, poor fit] and the AC50 [2] was 5.62 µM [rising, partial curve, poor fit].
In the case of `CCCc1cc(C(=O)N2CCN(c3ccccc3C)CC2)cs1`, the AC50 [1] is reported as 0.13 µM [rising, full curve, poor fit].
In the case of `COc1ccccc1N1CCN(C(=O)COc2cccc3ccccc23)CC1`, the AC50 [1] is reported as 35.5 µM [falling, single point].
With `O=C(Nc1ccccc1)c1ccc(-c2ccccc2)s1` the AC50 [1] was 3.55 µM [falling, full curve].
In the case of `CSCCC(NS(=O)(=O)c1ccccc1F)C(=O)NCC(C)(C)N1CCOCC1` (stereo not drawn), the AC50 [1] is reported as 29.1 µM [rising, single point].
In the case of `O=C(NCc1nnnn1-c1ccc(F)cc1)c1ccc([N+](=O)[O-])o1`, the AC50 [1] is reported as 4.61 µM [falling, full curve].
For `c1ccc(Cn2ccc(-c3cnc(-c4ccccc4)s3)n2)cc1`, the AC50 [1] was 0.326 µM [rising, partial curve, poor fit].
For `CC(=O)Nc1ccc(NC(=S)Nc2ccc(Br)cc2)cc1`, the AC50 [1] was 15.8 µM [rising, partial curve, poor fit].
For `CCOC(=O)N1CCN(C(=O)CC(C(=O)N2CCc3ccccc32)n2ccnc2)CC1` (stereo not drawn), the AC50 [1] was 12.6 µM [falling, single point].
With `CCOC(=O)c1c(C)[nH]c(C)c1C(=O)CSc1ncccn1` the AC50 [1] was 6.51 µM [falling, single point] and the AC50 [2] was 6.51 µM [rising, partial curve, poor fit].
In the case of `COc1ccc(NC(=O)N2CCCC(CNS(=O)(=O)c3cccs3)C2)c(C)c1` (stereo not drawn), the AC50 [1] is reported as 35.5 µM [rising, single point].
In the case of `CCn1nc(C(=O)NCC(c2cccs2)N2CCOCC2)c2ccccc2c1=O` (stereo not drawn), the AC50 [1] is reported as 35.5 µM [falling, single point].
With `O=C(CSC1=NCCS1)Nc1ccc(F)cc1` the AC50 [1] was 35.5 µM [falling, single point].
In the case of `CSc1nc(N(C)NC(=O)c2ccc(F)cc2)c2ccccc2n1`, the AC50 [1] is reported as 23.1 µM [rising, single point] and the AC50 [2] is reported as 18.4 µM [falling, single point].
In the case of `CC(C)c1cc(C(=O)OCC(=O)NC(=O)NCc2ccco2)c(O)c(C(C)C)c1`, the AC50 [1] is reported as 15.8 µM [falling, single point].
In the case of `N#Cc1c(Nc2ccccc2)sc(C(=O)C2CC2)c1N`, the AC50 [1] is reported as 8.2 µM [rising, partial curve].
In the case of `C/C(CC(=O)NCc1ccccc1Cl)=N/NC(=O)c1ccccn1`, the AC50 [1] is reported as 12.6 µM [falling, partial curve].
With `CCOC(=O)CNC(=O)C1Cc2ccccc2CN1S(=O)(=O)c1cccs1` (stereo not drawn) the AC50 [1] was 20 µM [rising, partial curve, poor fit].
In the case of `Clc1ccc2c(c1)nc1n2CCCC1`, the AC50 [1] is reported as 35.5 µM [rising, single point].
In the case of `CCC1(O)CC(C(=O)OC)=NN1C(=O)c1ccccc1` (stereo not drawn), the AC50 [1] is reported as 3.66 µM [falling, partial curve, poor fit].
With `Cc1oc(-c2ccccc2Cl)[n+]([O-])c1C` the AC50 [1] was 2.06 µM [rising, full curve, poor fit].
For `CSc1ccc(CCNC(=O)c2ccc(CS(=O)Cc3ccc(Cl)cc3)o2)cc1` (stereo not drawn), the AC50 [1] was 20 µM [falling, single point].
With `COc1cc(C(C#N)N2CCC(c3ccccc3)=N2)ccc1O` (stereo not drawn) the AC50 [1] was 6.31 µM [rising, partial curve, poor fit].
In the case of `Cc1[nH]n(-c2ccccc2)c(=O)c1/C=N/NC(=O)c1cccc([N+](=O)[O-])c1`, the AC50 [1] is reported as 0.631 µM [falling, partial curve, poor fit].
With `COCc1cc(=O)[nH]c(Nc2nc(C)c3ccccc3n2)n1` the AC50 [1] was 4.61 µM [falling, full curve].
In the case of `CC1=NNC(=O)C1CCC(=O)N/N=C(\C)c1ccccc1` (stereo not drawn), the AC50 [1] is reported as 35.5 µM [falling, single point].
For `CCOCc1nnc(NC(=O)c2cc(Cl)ccc2OC)s1`, the AC50 [1] was 0.82 µM [rising, full curve].
In the case of `Cc1csc(NC(=O)c2cccs2)n1`, the AC50 [1] is reported as 11.6 µM [falling, partial curve] and the AC50 [2] is reported as 7.31 µM [rising, partial curve, poor fit].
For `COc1ccc(NC(=O)Nc2c(C)noc2-c2ccccc2)cc1`, the AC50 [1] was 31.6 µM [rising, single point].
For `O=C(O)c1cccc(NC(=S)NC(=O)c2ccncc2)c1`, the AC50 [1] was 11.2 µM [falling, partial curve, poor fit].
For `CCCc1nc(NC(C)=O)c(C#N)c(-c2ccco2)c1CC`, the AC50 [1] was 3.16 µM [falling, full curve, poor fit].
With `COCCn1c(SCC(=O)Nc2ccc(OC)c(S(N)(=O)=O)c2)nc2ccccc21` the AC50 [1] was 5.01 µM [falling, full curve, poor fit].
In the case of `COc1ccccc1CNC(=O)C(=O)c1cn(CC(=O)N2CCCC2)c2ccccc12`, the AC50 [1] is reported as 1.26 µM [falling, full curve].
In the case of `COc1ccc(OC)c(NC(=O)COC(=O)c2n[nH]c3ccccc23)c1`, the AC50 [1] is reported as 8.2 µM [falling, partial curve].
For `Cn1nc(C(F)(F)F)c(-c2cccc(C(F)(F)F)c2)c1NC(=O)Nc1ccc(F)cc1`, the AC50 [1] was 17.8 µM [rising, single point].
